In patent publication US20130071417A1 (GOVERNING COUNCIL OF THE UNIVERSITY OF TORONTO, published 2013):
These are yes or no findings as the source states them, for the method shown. Some results given as binding are weak or reduced against the parent protein; the word gives no strength. Sequences can lack the tags named with a protein.

By UniProt entry, the sequences of proteins in these tests, tags left out. Where a name states a change or a piece, a line headed by the entry shows the natural chain unless it says otherwise.
UniProt P06731: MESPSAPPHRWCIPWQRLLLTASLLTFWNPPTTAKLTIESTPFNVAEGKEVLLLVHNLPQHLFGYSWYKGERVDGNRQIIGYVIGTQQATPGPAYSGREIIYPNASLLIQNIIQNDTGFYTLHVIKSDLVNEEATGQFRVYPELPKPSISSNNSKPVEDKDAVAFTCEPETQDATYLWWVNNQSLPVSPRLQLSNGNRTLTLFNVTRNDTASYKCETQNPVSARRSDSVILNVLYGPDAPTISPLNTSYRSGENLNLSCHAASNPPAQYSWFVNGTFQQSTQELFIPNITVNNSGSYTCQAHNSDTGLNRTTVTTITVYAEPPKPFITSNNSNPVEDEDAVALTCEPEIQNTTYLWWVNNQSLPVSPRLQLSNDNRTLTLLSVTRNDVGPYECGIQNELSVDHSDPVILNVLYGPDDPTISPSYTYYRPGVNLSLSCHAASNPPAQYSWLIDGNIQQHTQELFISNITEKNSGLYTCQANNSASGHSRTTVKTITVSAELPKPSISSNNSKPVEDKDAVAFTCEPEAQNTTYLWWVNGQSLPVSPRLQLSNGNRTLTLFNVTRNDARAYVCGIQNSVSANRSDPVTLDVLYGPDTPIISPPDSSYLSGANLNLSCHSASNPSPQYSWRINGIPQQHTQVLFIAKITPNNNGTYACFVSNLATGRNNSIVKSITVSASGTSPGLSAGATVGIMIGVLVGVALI

Molecular target: untagged rCEA N domain (cleaved rCEA N, residues 1-132) (human) (UniProt P06731)
Experiment: ELISA; untagged rCEA N coated, His-tagged module in solution, anti-His HRP detection

B1: His-tagged rCEA N domain (protein)
chain: MHHHHHHHHENLYFQKLTIESTPFNVAEGKEVLLLVHNLPQHLFGYSWYKGERVDGNRQIIGYVIGTQQATPGPAYSGREIIYPNASLLIQNIIQNDTGFYTLHVIKSDLVNEEATGQFRVYPELPKPSISSNNSKPVEDKDAVAFT
Question: Which binding does the source give for B1 here?
Answer: Its binding is “binds”.
